Article PMC3169561, “Restoration of IFNγR Subunit Assembly, IFNγ Signaling and Parasite Clearance in Leishmania donovani Infected Macrophages: Role of Membrane Cholesterol” (PLoS Pathogens, 2011)
No constants are given. Whether binding was seen depends on the method and setting. For some assays here: Binding seen in cells or lysates may run through a third protein. Some binding calls cover weakened binding; strength is not graded here.

By UniProt entry, the sequences of proteins in these tests, tags left out.
UniProt Q62120: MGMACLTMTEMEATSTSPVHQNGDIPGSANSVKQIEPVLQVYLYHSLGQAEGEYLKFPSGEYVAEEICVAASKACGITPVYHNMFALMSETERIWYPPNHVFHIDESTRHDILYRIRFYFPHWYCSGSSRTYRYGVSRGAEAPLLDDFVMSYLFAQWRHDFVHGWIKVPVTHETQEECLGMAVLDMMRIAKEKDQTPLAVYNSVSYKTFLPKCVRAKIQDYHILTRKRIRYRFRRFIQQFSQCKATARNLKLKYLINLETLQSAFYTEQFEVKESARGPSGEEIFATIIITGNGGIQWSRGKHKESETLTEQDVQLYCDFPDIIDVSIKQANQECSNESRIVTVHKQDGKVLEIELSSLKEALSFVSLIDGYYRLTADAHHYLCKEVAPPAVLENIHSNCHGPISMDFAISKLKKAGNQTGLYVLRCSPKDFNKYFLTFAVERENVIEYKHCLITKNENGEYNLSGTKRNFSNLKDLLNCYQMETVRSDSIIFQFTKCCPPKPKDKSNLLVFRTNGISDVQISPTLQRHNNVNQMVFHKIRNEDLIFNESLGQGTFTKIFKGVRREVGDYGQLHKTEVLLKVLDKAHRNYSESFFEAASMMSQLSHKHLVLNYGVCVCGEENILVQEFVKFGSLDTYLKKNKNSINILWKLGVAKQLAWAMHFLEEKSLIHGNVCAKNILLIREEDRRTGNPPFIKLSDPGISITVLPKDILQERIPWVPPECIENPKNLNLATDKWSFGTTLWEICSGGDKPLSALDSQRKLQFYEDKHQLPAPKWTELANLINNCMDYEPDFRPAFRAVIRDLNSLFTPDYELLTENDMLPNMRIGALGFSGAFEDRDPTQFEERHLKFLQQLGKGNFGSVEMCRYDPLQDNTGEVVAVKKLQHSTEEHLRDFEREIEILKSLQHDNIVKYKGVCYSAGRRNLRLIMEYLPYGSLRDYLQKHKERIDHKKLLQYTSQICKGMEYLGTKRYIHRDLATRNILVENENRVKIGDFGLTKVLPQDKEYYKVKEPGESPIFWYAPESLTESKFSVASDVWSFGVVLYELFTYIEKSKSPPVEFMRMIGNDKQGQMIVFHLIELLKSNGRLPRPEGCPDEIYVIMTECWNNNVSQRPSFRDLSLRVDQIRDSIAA
UniProt P29351: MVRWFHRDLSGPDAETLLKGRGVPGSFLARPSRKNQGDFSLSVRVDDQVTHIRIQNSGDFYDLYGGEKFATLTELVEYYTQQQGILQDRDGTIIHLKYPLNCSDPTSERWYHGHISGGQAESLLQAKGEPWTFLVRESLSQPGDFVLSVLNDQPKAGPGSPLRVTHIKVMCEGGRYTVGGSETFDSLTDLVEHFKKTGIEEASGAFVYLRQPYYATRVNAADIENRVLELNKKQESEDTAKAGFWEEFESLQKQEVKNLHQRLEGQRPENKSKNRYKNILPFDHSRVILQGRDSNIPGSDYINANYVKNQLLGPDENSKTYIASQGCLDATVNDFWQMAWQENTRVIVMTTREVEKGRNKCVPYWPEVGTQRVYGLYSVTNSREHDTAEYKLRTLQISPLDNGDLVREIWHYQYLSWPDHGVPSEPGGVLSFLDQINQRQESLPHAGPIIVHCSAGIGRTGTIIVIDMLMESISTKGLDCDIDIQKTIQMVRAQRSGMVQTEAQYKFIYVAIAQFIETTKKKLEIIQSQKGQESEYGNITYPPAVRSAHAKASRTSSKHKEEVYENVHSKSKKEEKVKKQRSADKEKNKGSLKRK
UniProt P52332: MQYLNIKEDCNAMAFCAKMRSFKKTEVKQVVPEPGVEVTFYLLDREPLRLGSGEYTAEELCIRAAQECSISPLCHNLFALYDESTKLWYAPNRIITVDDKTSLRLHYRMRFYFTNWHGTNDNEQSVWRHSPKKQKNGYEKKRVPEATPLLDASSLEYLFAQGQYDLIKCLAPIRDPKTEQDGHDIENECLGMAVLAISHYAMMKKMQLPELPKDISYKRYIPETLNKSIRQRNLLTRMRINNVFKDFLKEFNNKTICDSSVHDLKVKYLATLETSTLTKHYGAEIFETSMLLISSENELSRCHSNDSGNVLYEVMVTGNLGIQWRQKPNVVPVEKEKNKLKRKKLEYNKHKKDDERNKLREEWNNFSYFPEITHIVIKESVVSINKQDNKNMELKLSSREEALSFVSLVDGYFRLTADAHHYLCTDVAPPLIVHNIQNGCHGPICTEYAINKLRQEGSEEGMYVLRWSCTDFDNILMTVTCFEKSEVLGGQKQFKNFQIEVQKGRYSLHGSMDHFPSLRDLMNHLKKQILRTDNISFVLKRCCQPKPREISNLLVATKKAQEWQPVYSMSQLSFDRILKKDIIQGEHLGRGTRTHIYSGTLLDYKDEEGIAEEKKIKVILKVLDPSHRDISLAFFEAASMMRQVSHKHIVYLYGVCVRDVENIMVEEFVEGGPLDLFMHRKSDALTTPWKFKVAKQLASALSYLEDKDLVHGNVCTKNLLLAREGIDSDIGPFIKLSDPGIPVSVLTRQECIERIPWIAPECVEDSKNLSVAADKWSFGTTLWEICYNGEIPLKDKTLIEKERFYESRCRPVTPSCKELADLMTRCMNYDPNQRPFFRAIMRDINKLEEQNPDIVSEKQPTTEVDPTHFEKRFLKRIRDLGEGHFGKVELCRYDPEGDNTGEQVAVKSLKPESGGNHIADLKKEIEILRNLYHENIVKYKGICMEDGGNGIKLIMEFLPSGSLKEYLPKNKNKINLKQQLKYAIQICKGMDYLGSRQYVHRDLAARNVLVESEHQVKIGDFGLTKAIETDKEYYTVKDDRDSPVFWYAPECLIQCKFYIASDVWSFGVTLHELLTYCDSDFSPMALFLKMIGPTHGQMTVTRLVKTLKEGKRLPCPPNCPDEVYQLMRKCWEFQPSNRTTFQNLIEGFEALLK

T1: biotinylated recombinant murine IFNγ (mouse) (UniProt P01580)
T1 sequence (chain, biotin (EZ linked N-hydroxysulfosuccinimide-biotin)): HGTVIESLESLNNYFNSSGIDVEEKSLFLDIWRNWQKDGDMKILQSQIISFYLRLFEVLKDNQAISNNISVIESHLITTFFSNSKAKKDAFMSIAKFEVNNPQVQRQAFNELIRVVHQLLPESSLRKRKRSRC

T2: IFNγ receptor subunit 1 (IFNγR1) (mouse (endogenous in RAW 264.7)) (UniProt P15261)
T2 sequence: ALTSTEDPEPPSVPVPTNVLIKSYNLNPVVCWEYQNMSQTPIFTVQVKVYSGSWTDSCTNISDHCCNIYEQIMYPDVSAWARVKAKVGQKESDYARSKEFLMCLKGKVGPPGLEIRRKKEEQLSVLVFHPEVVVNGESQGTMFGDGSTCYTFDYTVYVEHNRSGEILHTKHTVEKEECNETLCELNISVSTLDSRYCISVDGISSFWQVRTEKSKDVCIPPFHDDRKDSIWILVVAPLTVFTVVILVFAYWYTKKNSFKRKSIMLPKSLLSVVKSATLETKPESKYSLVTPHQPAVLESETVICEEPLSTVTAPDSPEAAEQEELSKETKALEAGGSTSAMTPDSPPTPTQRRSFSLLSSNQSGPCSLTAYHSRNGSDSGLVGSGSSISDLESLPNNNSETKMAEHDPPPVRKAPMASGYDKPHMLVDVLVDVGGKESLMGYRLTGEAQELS


What was measured:
[1] = biological target: T1, biotinylated recombinant murine IFNγ (mouse); test: pull-down; biotinylated IFNγ (0.5 ng/ml, 3 min, 37°C) on RAW 264.7 cells, captured on streptavidin-agarose from pooled raft and non-raft fractions; blot for IFNγR1 and IFNγR2; complexes boiled in 1% SDS, re-precipitated with anti-pTyr and blotted for IFNγR1, JAK2, JAK1 and STAT1; only the target purified
[2] = biological target: JAK2 (mouse (endogenous in murine macrophages)) (UniProt Q62120); test: co-IP; anti-JAK2 immunoprecipitate of MØ lysates, blot for SHP-1; cells with/without the cell permeable crosslinker DSS; steady state and 12 hr L. donovani infected MØs with 100 U/ml rIFNγ for 3 min
[3] = biological target: T2, IFNγ receptor subunit 1 (IFNγR1) (mouse (endogenous in RAW 264.7)); test: radioligand binding; saturation binding of 125I-IFNγ (5-800 pM) to 2×10^7 cells per ml, 180 min at 4°C, RPMI with 2% fetal bovine serum; nonspecific binding with 200-fold excess of unlabeled ligand; one-site hyperbola; normal and L. donovani infected MØs; only the binder purified

binding [1]	Molecule	other results
binds	phosphorylated (activated) JAK2 (from UniProt Q62120 1-1132) (enzyme)	–
–	SHP-1 (from UniProt P29351 1-595) (enzyme)	binding [2]: binds
binds	phosphorylated (activated) JAK1 (from UniProt P52332 1-1153) (enzyme)	–
–	125I-labeled murine IFNγ (ligand, UniProt P01580 23-155, 125I (radioiodination with chloramine-T)) HGTVIESLESLNNYFNSSGIDVEEKSLFLDIWRNWQKDGDMKILQSQIISFYLRLFEVLKDNQAISNNISVIESHLITTFFSNSKAKKDAFMSIAKFEVNNPQVQRQAFNELIRVVHQLLPESSLRKRKRSRC	binding [3]: binds
binds	IFNγ receptor subunit 1 (IFNγR1) (receptor, UniProt P15261 26-477) ALTSTEDPEPPSVPVPTNVLIKSYNLNPVVCWEYQNMSQTPIFTVQVKVYSGSWTDSCTNISDHCCNIYEQIMYPDVSAWARVKAKVGQKESDYARSKEFLMCLKGKVGPPGLEIRRKKEEQLSVLVFHPEVVVNGESQGTMFGDGSTCYTFDYTVYVEHNRSGEILHTKHTVEKEECNETLCELNISVSTLDSRYCISVDGISSFWQVRTEKSKDVCIPPFHDDRKDSIWILVVAPLTVFTVVILVFAYWYTKKNSFKRKSIMLPKSLLSVVKSATLETKPESKYSLVTPHQPAVLESETVICEEPLSTVTAPDSPEAAEQEELSKETKALEAGGSTSAMTPDSPPTPTQRRSFSLLSSNQSGPCSLTAYHSRNGSDSGLVGSGSSISDLESLPNNNSETKMAEHDPPPVRKAPMASGYDKPHMLVDVLVDVGGKESLMGYRLTGEAQELS	–
